Paper PMC4122054
Results are given in words; binding and its absence hold for the method and conditions named. Binding seen in cells or lysates may run through a third protein. Some results given as binding are weak or reduced against the parent protein; the word gives no strength.

Amino acid sequences for entries named in this document (tags omitted).
UniProt Q09472: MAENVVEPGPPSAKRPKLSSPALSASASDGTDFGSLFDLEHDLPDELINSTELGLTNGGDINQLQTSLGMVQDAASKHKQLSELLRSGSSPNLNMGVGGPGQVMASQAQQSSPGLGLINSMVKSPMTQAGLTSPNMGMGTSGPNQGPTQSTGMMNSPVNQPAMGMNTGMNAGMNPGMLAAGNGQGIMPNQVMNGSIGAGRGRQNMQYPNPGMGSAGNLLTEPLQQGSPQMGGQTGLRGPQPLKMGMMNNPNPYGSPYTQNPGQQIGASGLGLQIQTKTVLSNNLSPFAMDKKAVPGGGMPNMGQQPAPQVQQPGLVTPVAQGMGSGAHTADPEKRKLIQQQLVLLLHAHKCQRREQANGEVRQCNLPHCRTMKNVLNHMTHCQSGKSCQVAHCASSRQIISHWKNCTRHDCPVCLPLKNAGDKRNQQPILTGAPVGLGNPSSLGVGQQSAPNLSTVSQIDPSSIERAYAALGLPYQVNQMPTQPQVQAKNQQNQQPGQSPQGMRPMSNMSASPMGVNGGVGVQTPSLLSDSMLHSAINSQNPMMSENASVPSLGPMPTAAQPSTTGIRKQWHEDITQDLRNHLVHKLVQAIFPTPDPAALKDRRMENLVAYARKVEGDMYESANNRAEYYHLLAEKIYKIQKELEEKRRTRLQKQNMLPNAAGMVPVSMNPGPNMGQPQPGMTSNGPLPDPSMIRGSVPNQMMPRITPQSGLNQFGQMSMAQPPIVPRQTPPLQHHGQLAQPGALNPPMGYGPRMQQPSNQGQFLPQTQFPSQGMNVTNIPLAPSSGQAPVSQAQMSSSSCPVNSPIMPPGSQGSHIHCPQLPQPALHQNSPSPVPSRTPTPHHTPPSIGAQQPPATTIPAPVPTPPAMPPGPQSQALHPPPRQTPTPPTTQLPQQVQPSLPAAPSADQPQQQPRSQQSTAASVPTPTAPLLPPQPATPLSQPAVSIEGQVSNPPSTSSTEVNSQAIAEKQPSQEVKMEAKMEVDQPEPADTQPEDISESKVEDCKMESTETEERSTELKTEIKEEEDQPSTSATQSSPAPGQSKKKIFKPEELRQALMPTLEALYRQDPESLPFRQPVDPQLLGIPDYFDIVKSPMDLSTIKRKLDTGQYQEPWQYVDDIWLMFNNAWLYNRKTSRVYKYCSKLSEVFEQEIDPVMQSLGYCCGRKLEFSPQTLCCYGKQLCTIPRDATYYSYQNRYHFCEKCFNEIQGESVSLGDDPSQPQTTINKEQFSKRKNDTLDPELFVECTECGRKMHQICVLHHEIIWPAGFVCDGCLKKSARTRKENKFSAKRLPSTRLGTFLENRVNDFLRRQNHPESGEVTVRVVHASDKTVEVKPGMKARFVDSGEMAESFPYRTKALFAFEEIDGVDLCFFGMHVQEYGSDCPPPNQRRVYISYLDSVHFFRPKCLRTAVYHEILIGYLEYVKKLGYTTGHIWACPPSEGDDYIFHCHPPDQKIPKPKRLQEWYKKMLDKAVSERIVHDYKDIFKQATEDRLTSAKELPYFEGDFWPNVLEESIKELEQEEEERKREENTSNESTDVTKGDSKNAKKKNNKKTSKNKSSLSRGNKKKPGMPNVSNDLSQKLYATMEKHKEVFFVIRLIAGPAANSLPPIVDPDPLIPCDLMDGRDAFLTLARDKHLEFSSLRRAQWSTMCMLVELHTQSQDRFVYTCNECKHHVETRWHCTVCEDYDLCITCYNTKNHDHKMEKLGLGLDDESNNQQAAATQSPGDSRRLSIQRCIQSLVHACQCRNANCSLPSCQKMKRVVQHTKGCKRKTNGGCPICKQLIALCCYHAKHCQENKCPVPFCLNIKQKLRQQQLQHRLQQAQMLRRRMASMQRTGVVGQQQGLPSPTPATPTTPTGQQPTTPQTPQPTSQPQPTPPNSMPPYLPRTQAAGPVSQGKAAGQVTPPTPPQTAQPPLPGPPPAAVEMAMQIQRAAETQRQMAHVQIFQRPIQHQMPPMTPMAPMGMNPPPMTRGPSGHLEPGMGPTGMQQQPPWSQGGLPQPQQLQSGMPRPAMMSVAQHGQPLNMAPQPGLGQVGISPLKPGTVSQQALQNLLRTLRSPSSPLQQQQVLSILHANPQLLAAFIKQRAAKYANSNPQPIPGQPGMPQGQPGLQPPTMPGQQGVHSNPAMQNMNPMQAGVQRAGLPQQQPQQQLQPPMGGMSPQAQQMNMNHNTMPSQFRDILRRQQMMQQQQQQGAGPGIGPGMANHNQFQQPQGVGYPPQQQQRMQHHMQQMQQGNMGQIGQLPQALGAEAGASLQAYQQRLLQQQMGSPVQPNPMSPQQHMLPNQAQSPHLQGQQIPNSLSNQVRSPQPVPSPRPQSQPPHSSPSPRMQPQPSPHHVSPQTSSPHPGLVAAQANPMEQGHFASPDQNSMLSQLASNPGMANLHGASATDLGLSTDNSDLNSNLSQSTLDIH

Molecular target: T1, Zinc finger E-box-binding homeobox 1 (human (endogenous in mesenchymal lung tumor cell lines)) (UniProt P37275)
T1 sequence: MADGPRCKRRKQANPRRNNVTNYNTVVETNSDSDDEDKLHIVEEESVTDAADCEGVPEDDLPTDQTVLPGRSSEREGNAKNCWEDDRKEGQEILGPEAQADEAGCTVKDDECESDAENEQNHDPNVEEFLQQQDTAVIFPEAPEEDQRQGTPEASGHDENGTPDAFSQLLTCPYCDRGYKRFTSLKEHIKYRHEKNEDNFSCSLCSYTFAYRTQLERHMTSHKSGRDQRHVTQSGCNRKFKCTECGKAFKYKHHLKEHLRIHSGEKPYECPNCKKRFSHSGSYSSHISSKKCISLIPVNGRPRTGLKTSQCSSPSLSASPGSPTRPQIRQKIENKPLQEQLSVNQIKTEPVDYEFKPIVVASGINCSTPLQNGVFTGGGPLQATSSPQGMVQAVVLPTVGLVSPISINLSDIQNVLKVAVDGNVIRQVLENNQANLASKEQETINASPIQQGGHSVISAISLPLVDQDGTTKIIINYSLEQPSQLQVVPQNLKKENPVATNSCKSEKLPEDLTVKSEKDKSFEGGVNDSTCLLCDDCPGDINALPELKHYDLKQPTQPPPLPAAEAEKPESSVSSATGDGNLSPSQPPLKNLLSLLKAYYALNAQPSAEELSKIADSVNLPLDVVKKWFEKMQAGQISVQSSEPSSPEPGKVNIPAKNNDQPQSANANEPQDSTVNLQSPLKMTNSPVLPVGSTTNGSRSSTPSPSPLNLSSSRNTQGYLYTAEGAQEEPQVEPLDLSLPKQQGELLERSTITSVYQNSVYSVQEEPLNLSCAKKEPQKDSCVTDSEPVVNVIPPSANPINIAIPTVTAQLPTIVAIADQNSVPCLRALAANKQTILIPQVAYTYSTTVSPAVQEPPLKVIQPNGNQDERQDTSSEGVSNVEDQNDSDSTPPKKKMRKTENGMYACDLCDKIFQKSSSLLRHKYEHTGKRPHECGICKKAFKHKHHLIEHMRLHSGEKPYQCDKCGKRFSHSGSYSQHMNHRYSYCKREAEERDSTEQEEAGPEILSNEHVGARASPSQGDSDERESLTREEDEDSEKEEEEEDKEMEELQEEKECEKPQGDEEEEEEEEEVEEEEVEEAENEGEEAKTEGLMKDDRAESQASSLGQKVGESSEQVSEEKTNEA
Assay: co-IP; endogenous proteins; 8 x 10^7 cells per immunoprecipitation lysed in NP-40 buffer (0.2% NP-40, 150 mM NaCl, 20 mM Tris pH 8.0, 10 mM EDTA); 2 ug ZEB1 or control antibody with protein-G sepharose overnight at 4°C; four washes in lysis buffer; Western blot

binding: binds
Substance: p300 (from UniProt Q09472 1-2414)
